The record followed here is paper PMC9604462.

The chains behind the UniProt entries cited, without tags or fusion partners. Residues count along the entry.
UniProt P00442, 2-152: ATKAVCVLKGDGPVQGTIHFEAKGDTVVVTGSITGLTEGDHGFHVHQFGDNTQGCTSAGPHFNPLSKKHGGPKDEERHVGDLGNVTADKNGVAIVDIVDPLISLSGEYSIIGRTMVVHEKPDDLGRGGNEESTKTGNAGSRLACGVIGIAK

For the data set, the target named is bovine Cu/Zn superoxide dismutase SOD1 (bovine) (UniProt P00442). Kind of data set: SAXS. The following applies: H2O2 0.05-1 mM, 24 h, binding said to be disrupted; SAXS: 100 uM bovine SOD1 and dsDNA; commercial protein.

For at least one entry, the source does not settle the construct or the ends of the probe. Weaker means in comparison with the reference protein, sequence or condition of that experiment.

With ATGGAATGGAAT (double strand) [dsDNA], the binding result is “binds more weakly”.
